The test system of the experiment is P388 leukemia ip, CD2F1 mice, survival T/C. Description: NCI In Vivo Anticancer Drug Screen. Data for tumor model P388 Leukemia (intraperitoneal) in CD2F1 (CDF1) mice. The note with it: T/C endpoint: median survival time, higher T/C = longer survival.
The mark [1] stands for this setting: dose: 200.0 mg/kg/injection, schedule: Q01DX005 (ip), vehicle: saline with Tween-80.

The list is a part of this screen's results and no random one: it is rich in T/C values a quarter to a half above the control, in often repeated tests (any T/C) and in doses without a T/C. Further doses and runs are listed elsewhere. T/C gives the treated animals as a percentage of the vehicle group. Some doses have a count of surviving animals in place of a T/C: the source files T/C as zero there, which appears to mark a toxic dose or a test without result, not a measured value. Some doses without a T/C left all or most animals alive at the check, yet need not have been tolerated: the source hardly ever lists a survival T/C far under the control, and the zero likely stands for such cases as well. Counts of survivors are from the toxicity check (mostly the fifth day) where no day follows; animals may have died later. Schedules are NCI's codes, read here as Q, the interval in days (D) or hours (H), X, the number of doses. Some doses were run more than once; their values stand side by side, smallest first. For survival time, the PubChem record calls one and a half times the control and up active, and a quarter to a half above the control has no call in these data; cut-offs in other NCI protocols can differ. Some T/C values carry the count of animals alive at the toxicity check (mostly the fifth day); where none is given, no animal had died by that day.

Consider `CN[C@H]1CCc2cc(OC)c(OC)c(OC)c2-c2ccc(OC)c(=O)cc21`, for which the T/C is, setting by setting: (dose: 1.0 mg/kg/injection, schedule: Q01DX009 (ip), vehicle: water) 130 % of control; (dose: 1.25 mg/kg/injection, schedule: Q01DX009 (ip), vehicle: water) 126 % of control; (dose: 2.0 mg/kg/injection, schedule: Q01DX009 (ip), vehicle: water) 128 % of control; (dose: 2.5 mg/kg/injection, schedule: Q01DX009 (ip), vehicle: water) 131 % of control; (dose: 4.0 mg/kg/injection, schedule: Q01DX009 (ip), vehicle: saline) 137 % of control; (dose: 4.0 mg/kg/injection, schedule: Q01DX009 (ip), vehicle: water) 130 % of control. Moreover, the T/C (dose: 8.0 mg/kg/injection, schedule: Q01DX009 (ip), vehicle: saline) was 149 % of control. Also, the survivor count is, setting by setting: (dose: 8.0 mg/kg/injection, schedule: Q01DX009 (ip), vehicle: saline with Tween-80) 6 of 6; (dose: 16.0 mg/kg/injection, schedule: Q01DX009 (ip), vehicle: saline with Tween-80) 5 of 6; (dose: 32.0 mg/kg/injection, schedule: Q01DX009 (ip), vehicle: saline with Tween-80) 1 of 6; (dose: 64.0 mg/kg/injection, schedule: Q04DX003 (ip), vehicle: saline with Tween-80) 5 of 6; (dose: 128.0 mg/kg/injection, schedule: Q04DX003 (ip), vehicle: saline with Tween-80) 2 of 6.
In the case of `CN(S(=O)(=O)CC(F)(F)F)S(=O)(=O)C(F)(F)F`, the T/C (dose: 3.12 mg/kg/injection, schedule: Q01DX009 (ip), vehicle: saline) was 137 % of control.
Take `Cc1ccc2c(c1)C1(C)C=C(CN3CCN(C)CC3)C(=O)CC1O2` (stereo not drawn): under “dose: 200.0 mg/kg/injection, schedule: Q01DX005 (ip), vehicle: saline”, the survivor count is given as 0 of 6.
As to `Nc1ncnc2c1nnn2C1OC(CO)C(O)C1O` (stereo not drawn), the T/C (dose: 25.0 mg/kg/injection, schedule: Q01DX009 (ip), vehicle: Klucel (hydroxypropylcellulose) (HPC)) was 137 % of control. Also, the survivor count (dose: 200.0 mg/kg/injection, schedule: Q01DX009 (ip), vehicle: Klucel (hydroxypropylcellulose) (HPC)) was 5 of 6.
Take `CNC(=O)OCc1c(COC(=O)NC)c(-c2cccs2)n2c1CCC2`: the T/C was 133 % of control (dose: 25.0 mg/kg/injection, schedule: Q01DX005 (ip), vehicle: saline with Tween-80) and 127 % of control [5 of 6 alive] (dose: 50.0 mg/kg/injection, schedule: Q01DX005 (ip), vehicle: saline with Tween-80). The survivor count (dose: 100.0 mg/kg/injection, schedule: Q01DX005 (ip), vehicle: saline with Tween-80) was 5 of 6 and 6 of 6; the survivor count under setting [1] is given as 1 of 6.
Take `CCOc1ccc(C(C#N)N(C)C)cc1OCC` (stereo not drawn): the survivor count is given as 3 of 6 (dose: 100.0 mg/kg/injection, schedule: Q01DX009 (ip), vehicle: saline with Tween-80) and 0 of 6 (dose: 200.0 mg/kg/injection, schedule: Q01DX009 (ip), vehicle: saline with Tween-80).
Turning to `O=C1N=NC2=C1c1c3ccccc3c(O)n1CC2`, the survivor count under setting [1] is reported as 6 of 6.

For the origin of these results see PubChem BioAssay AID330 (DTP/NCI, 2004).
